No constants are given. Whether binding was seen depends on the method and setting. Tags and fused reporters may be left off the sequences shown.
Biological target: MoyR (Rv0792c), GntR family (HutC subfamily) monooxygenase regulator of Mycobacterium tuberculosis (Mycobacterium tuberculosis H37Rv) (UniProt O86331)
Assay: dynamic light scattering

B1: MoyR (Rv0792c), GntR family (HutC subfamily) monooxygenase regulator of Mycobacterium tuberculosis (natural protein)
chain: MTSVKLDLDAADLRISRGSVPASTQLAEALKAQIIQQRLPRGGRLPSERELIDRSGLSRVTVRAAVGMLQRQGWLVRRQGLGTFVADPVEQELSCGVRTITEVLLSCGVTPQVDVLSHQTGPAPQRISETLGLVEVLCIRRRIRTGDQPLALVTAYLPPGVGPAVEPLLSGSADTETTYAMWERRLGVRIAQATHEIHAAGASPDVADALGLAVGSPVLVVDRTSYTNDGKPLEVVVFHHRPERYQFSVTLPRTLPGSGAGIIEKRDFA
In the case of B1, the binding is reported as “no binding (condition: at pH 5.5)”.
